Results are given in words; binding and its absence hold for the method and conditions named. For some assays here: A result given as binding can be weak or reduced; the word gives no strength.
What was measured:
[1] = biological target: St14f L229A W232A (Solanum tuberosum L. (potato)); test: thermal shift assay; 10 µM St14f with no and with 100 µM StFDL1 peptide; SYPRO Orange; 10 mM HEPES pH 7.5, 0.15 M NaCl; heated from 25 to 99 °C; ΔTm = melting temperature difference with and without the peptide; both purified
[2] = biological target: potato 14-3-3 protein St14f (Solanum tuberosum L. (potato)); test: NMR titration; 1H-15N HSQC of 250 µM 15N Lys-labeled St14f with 0 mM and 1 mM StFDL1 peptide; 10 mM Tris pH 7.5, 1 mM DTT, 10% D2O, 298 K, 950 MHz; both purified

LNRTSTAPF (phosphothreonine (pT) at the sixth residue of the peptide, LNRTSpTAPF) [StFDL1 peptide (LNRTSpTAPF)]
binding [1]: no binding (tested: 100 µM StFDL1 peptide) | binding [2]: binds

— article PMC9270373
